Patent US20140128472A1, “TREATMENT AND PREVENTION OF DISEASES RELATED TO OXIDATIVE STRESS” (UNIVERSITY OF PÉCS, priority 2011, published 2014)

Key:
[1] = system: mouse endothelial cells (ECs) from endothelioma; experiment: Incorporation of tyrosine isoforms into cellular proteins of mouse endothelioma cells (HPLC); format: cell-based; conditions: 7 days
[2] = Tyrosine content of the vascular wall after oral tyrosine isomer supplementation of rats (HPLC); format: in vivo, Sprague-Dawley rats; conditions: 4th week; 1.76 mg/die per os; relative to Phe levels

Structure (SMILES)	Relative m-Tyr content of cellular proteins compared to p-Tyr supplemented or control cells ([1]; 400 μmol/l m- and 400 μmol/l p-Tyr)	Vascular o-Tyr level compared to control group [2]	o-Tyr content of cellular proteins compared to p-Tyr or control ECs ([1]; 400 μmol/l o- and 400 μmol/l p-Tyr)
N[C@@H](Cc1cccc(O)c1)C(=O)O [m-Tyr, Meta-L-tyrosine]	higher relative content of m-Tyr	–	–
N[C@@H](Cc1ccccc1O)C(=O)O [o-Tyr, Ortho-L-tyrosine]	–	significantly higher o-Tyr level; also recorded: significantly increased the o-Tyr content	higher o-Tyr content
N[C@@H](Cc1ccc(O)cc1)C(=O)O [p-Tyr, Para-L-tyrosine]	–	did not alter o-Tyr levels	–

Entries after “also recorded” stand apart in the source; their conditions may differ.
